This is one part of the list.

Sequences of proteins named here, by UniProt entry; tags and fusion partners are left off. A change or cut given only in a name is not applied to a line headed by its entry.
UniProt Q92540: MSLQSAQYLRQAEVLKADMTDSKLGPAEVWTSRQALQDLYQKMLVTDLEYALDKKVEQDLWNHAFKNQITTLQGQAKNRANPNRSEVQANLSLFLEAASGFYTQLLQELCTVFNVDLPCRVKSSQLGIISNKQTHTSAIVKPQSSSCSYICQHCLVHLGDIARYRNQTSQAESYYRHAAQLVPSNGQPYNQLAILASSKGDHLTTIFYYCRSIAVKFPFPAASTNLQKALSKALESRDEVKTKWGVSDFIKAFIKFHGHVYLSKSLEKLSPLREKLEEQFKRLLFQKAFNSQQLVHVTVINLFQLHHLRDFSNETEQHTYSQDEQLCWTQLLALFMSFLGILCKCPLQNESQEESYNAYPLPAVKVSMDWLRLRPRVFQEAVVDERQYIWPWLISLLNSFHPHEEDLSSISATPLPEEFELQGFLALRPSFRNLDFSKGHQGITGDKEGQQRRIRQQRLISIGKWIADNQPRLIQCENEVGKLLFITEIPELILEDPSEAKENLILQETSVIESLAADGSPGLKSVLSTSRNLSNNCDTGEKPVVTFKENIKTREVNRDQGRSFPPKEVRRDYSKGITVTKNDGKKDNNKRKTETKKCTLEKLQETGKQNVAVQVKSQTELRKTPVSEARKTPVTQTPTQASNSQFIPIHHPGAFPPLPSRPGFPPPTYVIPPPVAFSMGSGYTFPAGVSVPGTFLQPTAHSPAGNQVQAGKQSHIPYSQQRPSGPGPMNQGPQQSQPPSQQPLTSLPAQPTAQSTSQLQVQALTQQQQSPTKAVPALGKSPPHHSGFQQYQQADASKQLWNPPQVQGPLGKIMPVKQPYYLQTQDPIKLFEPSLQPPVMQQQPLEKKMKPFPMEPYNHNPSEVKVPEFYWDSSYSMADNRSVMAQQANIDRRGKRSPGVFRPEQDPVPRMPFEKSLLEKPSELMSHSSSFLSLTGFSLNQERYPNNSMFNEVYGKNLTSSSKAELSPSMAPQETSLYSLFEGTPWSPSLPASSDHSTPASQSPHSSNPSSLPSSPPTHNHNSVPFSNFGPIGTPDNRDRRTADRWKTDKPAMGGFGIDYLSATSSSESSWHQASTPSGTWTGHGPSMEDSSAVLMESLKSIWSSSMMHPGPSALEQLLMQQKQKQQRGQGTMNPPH
UniProt O60749: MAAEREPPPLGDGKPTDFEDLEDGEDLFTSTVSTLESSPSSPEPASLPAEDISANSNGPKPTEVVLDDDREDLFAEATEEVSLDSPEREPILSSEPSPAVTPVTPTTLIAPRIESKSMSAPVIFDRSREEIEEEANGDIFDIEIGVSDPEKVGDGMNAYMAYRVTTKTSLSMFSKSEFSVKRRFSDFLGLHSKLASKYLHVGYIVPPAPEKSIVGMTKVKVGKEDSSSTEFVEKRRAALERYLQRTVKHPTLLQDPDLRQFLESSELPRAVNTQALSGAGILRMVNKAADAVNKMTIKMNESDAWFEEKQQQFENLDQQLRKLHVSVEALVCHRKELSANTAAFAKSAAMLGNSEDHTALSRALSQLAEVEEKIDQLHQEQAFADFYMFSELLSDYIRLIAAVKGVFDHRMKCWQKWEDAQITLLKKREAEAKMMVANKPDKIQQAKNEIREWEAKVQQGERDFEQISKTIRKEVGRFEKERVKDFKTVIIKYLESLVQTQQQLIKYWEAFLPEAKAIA
UniProt O76070, whole entry, looked up: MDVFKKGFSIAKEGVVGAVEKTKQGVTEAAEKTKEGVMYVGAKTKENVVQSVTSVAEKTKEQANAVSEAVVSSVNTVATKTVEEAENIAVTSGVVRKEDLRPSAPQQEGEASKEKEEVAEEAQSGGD
UniProt P35712: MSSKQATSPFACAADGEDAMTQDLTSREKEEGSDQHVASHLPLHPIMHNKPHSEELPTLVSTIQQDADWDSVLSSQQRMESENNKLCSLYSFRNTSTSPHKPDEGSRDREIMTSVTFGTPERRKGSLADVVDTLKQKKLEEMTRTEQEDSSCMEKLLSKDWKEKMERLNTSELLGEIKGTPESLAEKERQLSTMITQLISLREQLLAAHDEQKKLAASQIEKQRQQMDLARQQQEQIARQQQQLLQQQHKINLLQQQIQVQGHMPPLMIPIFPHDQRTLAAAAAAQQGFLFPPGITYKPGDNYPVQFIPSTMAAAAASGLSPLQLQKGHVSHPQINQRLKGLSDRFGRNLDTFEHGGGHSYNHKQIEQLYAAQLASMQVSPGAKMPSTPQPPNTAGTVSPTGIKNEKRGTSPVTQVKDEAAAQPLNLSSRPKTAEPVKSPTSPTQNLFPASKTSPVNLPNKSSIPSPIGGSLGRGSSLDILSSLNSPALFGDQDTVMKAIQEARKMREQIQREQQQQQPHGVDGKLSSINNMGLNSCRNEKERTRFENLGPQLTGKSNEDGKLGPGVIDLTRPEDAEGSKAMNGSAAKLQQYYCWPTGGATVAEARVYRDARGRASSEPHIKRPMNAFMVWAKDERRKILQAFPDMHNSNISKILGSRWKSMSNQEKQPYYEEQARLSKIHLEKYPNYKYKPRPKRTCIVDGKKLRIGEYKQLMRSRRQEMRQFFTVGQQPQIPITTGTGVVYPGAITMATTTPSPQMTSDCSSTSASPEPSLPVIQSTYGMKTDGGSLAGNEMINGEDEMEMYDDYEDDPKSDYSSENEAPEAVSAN
UniProt P62306, whole entry, looked up: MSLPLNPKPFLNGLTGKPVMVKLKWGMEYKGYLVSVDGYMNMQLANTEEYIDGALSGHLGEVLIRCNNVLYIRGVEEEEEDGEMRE
UniProt P08579, whole entry, looked up: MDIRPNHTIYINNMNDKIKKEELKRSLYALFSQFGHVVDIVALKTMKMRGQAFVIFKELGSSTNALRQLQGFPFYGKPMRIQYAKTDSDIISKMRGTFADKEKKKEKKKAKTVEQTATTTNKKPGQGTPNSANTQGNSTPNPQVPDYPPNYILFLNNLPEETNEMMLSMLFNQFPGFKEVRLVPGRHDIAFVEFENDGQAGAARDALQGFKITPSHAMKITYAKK
UniProt O75391: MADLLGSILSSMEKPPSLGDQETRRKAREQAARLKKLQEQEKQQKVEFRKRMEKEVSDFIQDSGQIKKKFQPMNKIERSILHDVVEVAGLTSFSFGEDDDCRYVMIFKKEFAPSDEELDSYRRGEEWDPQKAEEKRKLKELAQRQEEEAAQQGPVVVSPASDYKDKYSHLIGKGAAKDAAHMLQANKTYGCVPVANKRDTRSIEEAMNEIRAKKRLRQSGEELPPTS
UniProt O95721: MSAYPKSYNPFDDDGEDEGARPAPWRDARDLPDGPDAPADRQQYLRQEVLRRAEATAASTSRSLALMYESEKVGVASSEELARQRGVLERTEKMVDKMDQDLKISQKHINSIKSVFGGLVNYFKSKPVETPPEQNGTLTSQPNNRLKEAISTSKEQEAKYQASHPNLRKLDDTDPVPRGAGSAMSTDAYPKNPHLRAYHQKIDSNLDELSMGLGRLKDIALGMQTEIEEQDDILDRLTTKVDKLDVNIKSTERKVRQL
UniProt Q9H7B4: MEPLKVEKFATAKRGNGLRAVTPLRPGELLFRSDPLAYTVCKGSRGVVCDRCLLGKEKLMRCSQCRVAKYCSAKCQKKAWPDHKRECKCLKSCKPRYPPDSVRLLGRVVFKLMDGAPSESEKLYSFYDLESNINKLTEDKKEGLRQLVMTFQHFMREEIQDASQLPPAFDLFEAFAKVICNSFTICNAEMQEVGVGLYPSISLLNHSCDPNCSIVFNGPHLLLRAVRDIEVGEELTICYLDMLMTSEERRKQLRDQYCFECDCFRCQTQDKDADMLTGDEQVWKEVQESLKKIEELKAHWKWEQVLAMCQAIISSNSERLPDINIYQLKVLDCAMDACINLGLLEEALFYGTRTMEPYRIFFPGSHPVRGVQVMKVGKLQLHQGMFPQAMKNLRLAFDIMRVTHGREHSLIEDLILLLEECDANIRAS
UniProt P04179: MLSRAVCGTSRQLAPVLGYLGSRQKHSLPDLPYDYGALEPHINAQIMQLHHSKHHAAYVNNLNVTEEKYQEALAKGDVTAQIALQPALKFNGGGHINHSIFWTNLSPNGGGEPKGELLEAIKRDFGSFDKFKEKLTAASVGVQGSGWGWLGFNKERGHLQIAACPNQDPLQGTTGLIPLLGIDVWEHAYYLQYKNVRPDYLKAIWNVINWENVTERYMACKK
UniProt Q9Y5W9: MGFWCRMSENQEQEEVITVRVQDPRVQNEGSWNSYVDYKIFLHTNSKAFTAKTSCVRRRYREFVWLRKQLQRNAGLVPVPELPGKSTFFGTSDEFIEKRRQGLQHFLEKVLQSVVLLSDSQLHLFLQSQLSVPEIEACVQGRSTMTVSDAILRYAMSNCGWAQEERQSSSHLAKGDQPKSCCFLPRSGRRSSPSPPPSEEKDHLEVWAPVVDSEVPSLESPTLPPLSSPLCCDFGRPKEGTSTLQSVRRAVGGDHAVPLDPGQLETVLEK
UniProt O94964: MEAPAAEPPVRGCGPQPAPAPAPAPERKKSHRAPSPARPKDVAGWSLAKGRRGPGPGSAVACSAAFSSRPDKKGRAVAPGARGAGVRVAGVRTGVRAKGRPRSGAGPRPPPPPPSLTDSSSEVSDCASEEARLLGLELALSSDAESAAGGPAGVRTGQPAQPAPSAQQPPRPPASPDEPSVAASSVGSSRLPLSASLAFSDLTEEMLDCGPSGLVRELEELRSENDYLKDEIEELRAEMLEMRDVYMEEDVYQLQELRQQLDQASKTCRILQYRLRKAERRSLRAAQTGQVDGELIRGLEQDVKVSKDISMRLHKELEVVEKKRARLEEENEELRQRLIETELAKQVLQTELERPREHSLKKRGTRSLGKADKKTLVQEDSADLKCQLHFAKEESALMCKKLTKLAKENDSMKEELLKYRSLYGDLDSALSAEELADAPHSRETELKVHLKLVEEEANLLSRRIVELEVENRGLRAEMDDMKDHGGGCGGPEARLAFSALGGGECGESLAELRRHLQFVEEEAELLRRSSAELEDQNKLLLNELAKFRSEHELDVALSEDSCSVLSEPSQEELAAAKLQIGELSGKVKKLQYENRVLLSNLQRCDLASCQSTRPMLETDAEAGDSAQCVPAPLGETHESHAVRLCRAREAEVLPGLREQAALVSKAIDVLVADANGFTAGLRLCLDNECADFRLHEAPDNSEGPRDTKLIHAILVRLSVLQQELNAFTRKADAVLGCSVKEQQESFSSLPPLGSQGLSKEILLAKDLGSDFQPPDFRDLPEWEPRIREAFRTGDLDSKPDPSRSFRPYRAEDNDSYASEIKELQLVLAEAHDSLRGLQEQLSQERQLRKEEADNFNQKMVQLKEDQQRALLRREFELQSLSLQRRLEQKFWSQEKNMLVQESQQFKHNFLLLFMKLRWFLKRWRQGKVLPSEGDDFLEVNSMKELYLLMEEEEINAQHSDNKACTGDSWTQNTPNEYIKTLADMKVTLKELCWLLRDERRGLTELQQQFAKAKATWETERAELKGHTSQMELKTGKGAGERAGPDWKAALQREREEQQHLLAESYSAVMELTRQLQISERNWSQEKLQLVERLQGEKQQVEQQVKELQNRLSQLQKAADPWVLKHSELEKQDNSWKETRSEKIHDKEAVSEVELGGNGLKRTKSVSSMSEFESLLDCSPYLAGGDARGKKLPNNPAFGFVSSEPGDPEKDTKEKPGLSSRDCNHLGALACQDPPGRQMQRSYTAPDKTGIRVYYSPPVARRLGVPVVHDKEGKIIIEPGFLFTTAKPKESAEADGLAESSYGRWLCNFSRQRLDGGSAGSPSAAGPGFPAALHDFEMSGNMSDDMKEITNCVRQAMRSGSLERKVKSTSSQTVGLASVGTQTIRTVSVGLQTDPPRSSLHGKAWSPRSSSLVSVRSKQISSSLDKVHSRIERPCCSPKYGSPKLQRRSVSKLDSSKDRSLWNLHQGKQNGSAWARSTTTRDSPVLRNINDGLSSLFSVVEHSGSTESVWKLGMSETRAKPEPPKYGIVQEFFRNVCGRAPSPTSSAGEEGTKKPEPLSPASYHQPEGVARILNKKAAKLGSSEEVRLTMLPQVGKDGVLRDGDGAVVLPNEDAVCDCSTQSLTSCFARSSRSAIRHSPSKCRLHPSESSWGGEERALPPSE
UniProt Q13596, whole entry, looked up: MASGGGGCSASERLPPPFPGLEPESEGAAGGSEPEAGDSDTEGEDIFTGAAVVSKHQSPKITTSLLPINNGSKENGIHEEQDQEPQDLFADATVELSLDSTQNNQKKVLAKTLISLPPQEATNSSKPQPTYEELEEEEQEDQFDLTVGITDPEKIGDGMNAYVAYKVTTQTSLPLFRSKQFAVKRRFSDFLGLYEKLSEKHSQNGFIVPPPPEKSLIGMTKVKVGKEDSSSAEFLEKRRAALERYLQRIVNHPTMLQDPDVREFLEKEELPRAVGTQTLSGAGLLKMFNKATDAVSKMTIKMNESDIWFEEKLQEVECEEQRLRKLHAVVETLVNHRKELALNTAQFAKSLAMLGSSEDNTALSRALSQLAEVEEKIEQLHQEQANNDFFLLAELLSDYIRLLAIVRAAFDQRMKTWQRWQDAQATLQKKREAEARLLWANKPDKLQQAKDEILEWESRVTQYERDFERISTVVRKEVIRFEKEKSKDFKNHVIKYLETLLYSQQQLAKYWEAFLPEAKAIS

Compound in one assay: NCC(=O)Nc1ccc(-n2nc(C(F)(F)F)cc2-c2ccc3c(ccc4ccccc43)c2)cc1
As to the kind of experiment: log2 fold change, soluble protein after heating vs DMSO (PISA); higher = thermal stabilisation; K562 lysate, 10 uM; active = over 0.2 and 3.5 SD of the protein, either way, in both replicates (recomputed). The method in brief:
(§1)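 K562 pellets were dounce-homogenised in PBS pH 7.4 containing 1 mM MgCl2, and the crude extract, at 1 mg/mL protein, was exposed to 10 μM compound for 30 min. Aliquots were heated for 3 min across 48°C-58°C, pooled, brought to 0.5% NP-40 at 4°C and spun at 21,000xg for 90 min, with the supernatant taken as soluble protein. TMTpro 16plex LC-MS/MS with equalised channel sums quantified that protein. Values are log-two fold changes in thermal stability relative to solvent controls, taken from duplicates.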
Consider SNTB2 (UniProt Q13425), for which the log2 fold change is inactive: 0.058. The same measure, in the same setting: the figure for SMG7 (UniProt Q92540) is inactive: 0.158; for SNRPC (UniProt P09234) it is inactive: -0.007.

As for SNX17 (UniProt Q15036), the log2 fold change is inactive: 0.055. Turning to SP1 (UniProt P08047), the log2 fold change is inactive: 0.001.

Consider SNAP23 (UniProt O00161), for which the log2 fold change was inactive: -0.017.

In the case of SNX2 (UniProt O60749), the log2 fold change is inactive: -0.003. Regarding SND1 (UniProt Q7KZF4), the log2 fold change was inactive: 0.001. The same measure, in the same setting: the figure for SMYD2 (UniProt Q9NRG4) is inactive: -0.01; for SMARCAD1 isoform 2 (UniProt Q9H4L7) it is inactive: -0.005.

SP100 isoform 4 (UniProt P23497): the log2 fold change was inactive: -0.02.

With SMC3 (UniProt Q9UQE7), the log2 fold change is inactive: -0.023. Still for that read-out and setting: the figure for SNX18 isoform 2 (UniProt Q96RF0) is inactive: -0.071; for SNCG (UniProt O76070) it is inactive: 0.027; for SMC4 (UniProt Q9NTJ3) it is inactive: 0.013.

Compound in the next assay: O=C(CCCCCCC(=O)Nc1ccccc1)NO [vorinostat]
The description is as above. A digest of the protocol: as §1
Consider SOX6 (UniProt P35712), for which the log2 fold change is inactive: 0.125. Same read-out and setting: the figure for SMCR8 (UniProt Q8TEV9) is inactive: 0.044; for SMYD5 (UniProt Q6GMV2) it is inactive: -0.011. Regarding SNRPA1 (UniProt P09661), the log2 fold change was inactive: 0.064.

Consider SMU1 (UniProt Q2TAY7), for which the log2 fold change is inactive: 0.086. The same measure, in the same setting: the figure for SOCS2 (UniProt O14508) is inactive: -0.027; for SMARCA5 (UniProt O60264) it is inactive: -0.06; for SNRPF (UniProt P62306) it is inactive: -0.014. Still for that read-out and setting: the figure for SNRPB2 (UniProt P08579) is inactive: 0.12; for SNU13 (UniProt P55769) it is inactive: -0.022. Same read-out and setting: the figure for SNRPN isoform 2 (UniProt P63162) is inactive: 0.216; for SPAG7 (UniProt O75391) it is inactive: 0.088; for SNAP29 (UniProt O95721) it is inactive: 0.122. As to SMYD3 (UniProt Q9H7B4), the log2 fold change is active: -0.202. The same measure, in the same setting: the figure for SNRNP40 (UniProt Q96DI7) is inactive: 0.233. On the same count and under the same terms, the figure for SMTN isoform 6 (UniProt P53814) is inactive: -0.088; for SMC1B isoform 3 (UniProt Q8NDV3) it is inactive: 0.068; for SOD2 (UniProt P04179) it is inactive: 0.16. The same measure, in the same setting: the figure for SNRK (UniProt Q9NRH2) is inactive: -0.133; for SNX11 (UniProt Q9Y5W9) it is inactive: 0.058.

As for SOGA1 isoform 2 (UniProt O94964), the log2 fold change was inactive: -0.242. Still for that read-out and setting: the figure for SNX1 (UniProt Q13596) is inactive: -0.06. The same measure, in the same setting: the figure for SMARCA4 (UniProt P51532) is active: -0.246; for SNTB2 (UniProt Q13425) it is inactive: -0.127. The same measure, in the same setting: the figure for SMG7 (UniProt Q92540) is inactive: -0.053. With SNRPC (UniProt P09234), the log2 fold change is inactive: 0.085. Still for that read-out and setting: the figure for SNX17 (UniProt Q15036) is inactive: -0.022.

For the target SP1 (UniProt P08047), the log2 fold change is active: -0.376. On the same count and under the same terms, the figure for SNAP23 (UniProt O00161) is inactive: 0.052. Same read-out and setting: the figure for SNX2 (UniProt O60749) is inactive: -0.088.

With SND1 (UniProt Q7KZF4), the log2 fold change is active: -0.414. As for SMYD2 (UniProt Q9NRG4), the log2 fold change was inactive: -0.141. On the same count and under the same terms, the figure for SMARCAD1 isoform 2 (UniProt Q9H4L7) is active: -0.27. Consider SP100 isoform 4 (UniProt P23497), for which the log2 fold change is inactive: 0.087. Same read-out and setting: the figure for SMC3 (UniProt Q9UQE7) is inactive: 0.06. Same read-out and setting: the figure for SNX18 isoform 2 (UniProt Q96RF0) is inactive: -0.182; for SNCG (UniProt O76070) it is inactive: 0.141; for SMC4 (UniProt Q9NTJ3) it is active: -0.296.

The values are drawn from the supplement of paper PMC10849652.
